# Measurements reported in PubChem BioAssay AID1224830 (NIAID, 2016).
# Screen: 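Regulators of TLR4 signalling towards TNF-alpha in macrophage-like cells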 (primary screen)
# Cells: human THP-1 monocytic leukaemia cells, TNF dual-luciferase reporter clone, PMA-differentiated to macrophage-like cells
# Reagent: siRNA pool against human genes, 50 nM
# Timing: LPS for 4 h, given about 3 days after siRNA transfection
# Conditions: bacterial LPS (TLR4 ligand), 10 ng/ml
# Read-out: 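Ratio of firefly to renilla light, scaled to the plate median and expressed as a robust z-score per replicate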
# Scale: TNF reporter robust z-score: higher = stronger TNF reporter response to LPS
# Hit rule: 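a well is active when its z-score exceeds 2.8 or falls below -1.5; control wells carry no call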
# This is an unselected part of about 18,000 deposited reagents. About 2,900 of all reagents (16%) were called active. 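Calls are made per well; low scores hint the gene aids the LPS response, high scores that it dampens it.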 Entries without a mark were called inactive. Repeated entries: four replicate wells of each siRNA pool.
Target gene,TNF reporter robust z-score
CPSF7 (cleavage and polyadenylation specific factor 7),1.63
CPSF7 (cleavage and polyadenylation specific factor 7),0.66
CPSF7 (cleavage and polyadenylation specific factor 7),0.43
CPSF7 (cleavage and polyadenylation specific factor 7),1.02
FEN1 (flap structure-specific endonuclease 1),0.37
FEN1 (flap structure-specific endonuclease 1),-0.41
FEN1 (flap structure-specific endonuclease 1),0.56
FEN1 (flap structure-specific endonuclease 1),0.26
RPH3A (rabphilin 3A),0.28
RPH3A (rabphilin 3A),0.74
RPH3A (rabphilin 3A),-0.18
RPH3A (rabphilin 3A),2.61
OR5D18 (olfactory receptor family 5 subfamily D member 18),2.5
OR5D18 (olfactory receptor family 5 subfamily D member 18),1.59
OR5D18 (olfactory receptor family 5 subfamily D member 18),-0.2
OR5D18 (olfactory receptor family 5 subfamily D member 18),0.38
VPS50 (VPS50 subunit of EARP/GARPII complex),3.12 (active)
VPS50 (VPS50 subunit of EARP/GARPII complex),1.6
VPS50 (VPS50 subunit of EARP/GARPII complex),-0.09
VPS50 (VPS50 subunit of EARP/GARPII complex),1.68
SALL2 (spalt like transcription factor 2),-0.84
SALL2 (spalt like transcription factor 2),-0.3
SALL2 (spalt like transcription factor 2),-0.51
SALL2 (spalt like transcription factor 2),0.56
APOO (apolipoprotein O),-0.93
APOO (apolipoprotein O),-0.57
APOO (apolipoprotein O),-0.21
APOO (apolipoprotein O),-0.85
UCN3 (urocortin 3),2.48
UCN3 (urocortin 3),3.89 (active)
UCN3 (urocortin 3),2.29
UCN3 (urocortin 3),3.07 (active)
UBP1 (upstream binding protein 1),-0.36
UBP1 (upstream binding protein 1),0.03
UBP1 (upstream binding protein 1),-0.48
UBP1 (upstream binding protein 1),0.41
CEP104 (centrosomal protein 104),0.85
CEP104 (centrosomal protein 104),-0.24
CEP104 (centrosomal protein 104),-0.82
CEP104 (centrosomal protein 104),-0.11
P2RY2 (purinergic receptor P2Y2),-0.41
P2RY2 (purinergic receptor P2Y2),-0.6
P2RY2 (purinergic receptor P2Y2),-0.34
P2RY2 (purinergic receptor P2Y2),0.87
MKKS (MKKS centrosomal shuttling protein),-0.28
MKKS (MKKS centrosomal shuttling protein),-0.68
MKKS (MKKS centrosomal shuttling protein),-0.9
MKKS (MKKS centrosomal shuttling protein),-0.11
ARF1 (ARF GTPase 1),0
ARF1 (ARF GTPase 1),-0.65
ARF1 (ARF GTPase 1),-1.22
ARF1 (ARF GTPase 1),-0.58
SNU13 (small nuclear ribonucleoprotein 13),-1.06
SNU13 (small nuclear ribonucleoprotein 13),-0.87
SNU13 (small nuclear ribonucleoprotein 13),-0.56
SNU13 (small nuclear ribonucleoprotein 13),0.28
JAK3 (Janus kinase 3),1.23
JAK3 (Janus kinase 3),0.77
JAK3 (Janus kinase 3),0.21
JAK3 (Janus kinase 3),0

Quoted from above for reference:
Target gene,TNF reporter robust z-score
UCN3 (urocortin 3),2.29
UCN3 (urocortin 3),3.07 (active)
UBP1 (upstream binding protein 1),-0.36
UBP1 (upstream binding protein 1),0.03
UBP1 (upstream binding protein 1),-0.48
UBP1 (upstream binding protein 1),0.41
CEP104 (centrosomal protein 104),0.85
CEP104 (centrosomal protein 104),-0.24
CEP104 (centrosomal protein 104),-0.82
CEP104 (centrosomal protein 104),-0.11
P2RY2 (purinergic receptor P2Y2),-0.41

Continued.
Target gene,TNF reporter robust z-score
NBPF14 (NBPF member 14),-1.03
NBPF14 (NBPF member 14),-0.68
NBPF14 (NBPF member 14),-0.64
NBPF14 (NBPF member 14),-0.59
OR4A15 (olfactory receptor family 4 subfamily A member 15),0.69
OR4A15 (olfactory receptor family 4 subfamily A member 15),0.8
OR4A15 (olfactory receptor family 4 subfamily A member 15),1.29
OR4A15 (olfactory receptor family 4 subfamily A member 15),2.16
COASY (Coenzyme A synthase),-1.09
COASY (Coenzyme A synthase),0.23
COASY (Coenzyme A synthase),-0.44
COASY (Coenzyme A synthase),0.1
TMEM50B (transmembrane protein 50B),1.31
TMEM50B (transmembrane protein 50B),1.85
TMEM50B (transmembrane protein 50B),1.46
TMEM50B (transmembrane protein 50B),2
PJVK (pejvakin),0.5
PJVK (pejvakin),0.6
PJVK (pejvakin),-0.36
PJVK (pejvakin),0.73
RBMY1J (RNA binding motif protein Y-linked family 1 member J),0.93
RBMY1J (RNA binding motif protein Y-linked family 1 member J),0.25
RBMY1J (RNA binding motif protein Y-linked family 1 member J),0.39
RBMY1J (RNA binding motif protein Y-linked family 1 member J),0.13
OR2C3 (olfactory receptor family 2 subfamily C member 3),-0.35
OR2C3 (olfactory receptor family 2 subfamily C member 3),0.64
OR2C3 (olfactory receptor family 2 subfamily C member 3),0.48
OR2C3 (olfactory receptor family 2 subfamily C member 3),0.38
BHLHE40 (basic helix-loop-helix family member e40),-1.12
BHLHE40 (basic helix-loop-helix family member e40),-0.92
BHLHE40 (basic helix-loop-helix family member e40),-1.08
BHLHE40 (basic helix-loop-helix family member e40),-0.83
SLC25A14,-1.59 (active)
SLC25A14,-1.75 (active)
SLC25A14,-2.17 (active)
SLC25A14,-1.48
PSG7 (pregnancy specific beta-1-glycoprotein 7),-0.27
PSG7 (pregnancy specific beta-1-glycoprotein 7),-0.05
PSG7 (pregnancy specific beta-1-glycoprotein 7),1.62
PSG7 (pregnancy specific beta-1-glycoprotein 7),-0.23
ELOVL3 (ELOVL fatty acid elongase 3),1.16
ELOVL3 (ELOVL fatty acid elongase 3),1.47
ELOVL3 (ELOVL fatty acid elongase 3),-0.37
ELOVL3 (ELOVL fatty acid elongase 3),1.66
TMEM242 (transmembrane protein 242),-0.49
TMEM242 (transmembrane protein 242),-0.63
TMEM242 (transmembrane protein 242),-0.77
TMEM242 (transmembrane protein 242),0.84
MTO1 (mitochondrial tRNA translation optimization 1),-1.08
MTO1 (mitochondrial tRNA translation optimization 1),-0.98
MTO1 (mitochondrial tRNA translation optimization 1),-0.78
MTO1 (mitochondrial tRNA translation optimization 1),-1.36
